According to PubChem BioAssay AID504834 (National Center for Advancing Translational Sciences (NCATS), 2011):
The campaign covered roughly 320,000 compounds. About 22,000 (6.9%) were called active. The inconclusive results got no clear call from the source; some entries with a clear call stand among them for comparison. Calls follow the shape of the dose curve; as a rule, active = well fitted inhibition curve with a large enough effect; inconclusive = small, poorly fitted or top-dose-only effect, or another doubt; inactive = no such curve, though single readings can be large or run the other way. Where the call is inconclusive, the potency comes from a doubtful curve fit.

test: Primary qHTS for delayed death inhibitors of the malarial parasite plastid, 96 hour incubation; details: P. falciparum luciferase reporter growth; series mostly up to 28.7 µM; activity change, negative = inhibition: at the top concentration
How it was run: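 Delayed-death screen, second-generation endpoint: infected erythrocytes, 2% hematocrit, 0.05% parasitemia final; 96 hours at 37 C, 5% CO2; luciferase detection reagent; luminescence decrease equals reduced growth.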
% is scaled to controls: 0 for no effect and ±100 for the full control effect; potency is read from the fitted curve at half-maximal effect.

Structure (SMILES)	Potency	activity change, negative = inhibition
Cc1[nH]c2ccccc2c1C(=O)CN1C(=O)NC(C)(c2ccc(Cl)cc2Cl)C1=O (centres undefined)	inconclusive: 11.7 µM [inhibitor, single point]	–
O=C(Nc1ccccc1C(=O)N/N=C/c1ccco1)c1ccc(F)cc1	inconclusive: 18.5 µM [inhibitor, single point]	–
CCc1ccccc1Nc1nc(N)nc(CSCC(=O)c2cc(C)n(C)c2C)n1	–	inactive: 198%
CCC(=O)Nc1nc(CC(=O)Nc2ccccc2)cs1	inconclusive: 13.1 µM [inhibitor, single point]	–
COCCn1c(SCC(=O)N2CCCCC2)nc2ccccc2c1=O	inconclusive: 16.5 µM [inhibitor, single point]	–
O=C1NC(c2ccc(O)cc2)Nc2ccccc21 (centres undefined)	–	inactive: -29.3%
COc1ccc(OC)c(CN2CCN(C(=O)CNC(=O)c3ccc(C(C)(C)C)cc3)CC2)c1	active: 11.7 µM	–
O=C1Nc2cc(C(=O)NCCCN3CCOCC3)ccc2S/C1=C/c1ccccc1F	inconclusive: 18.5 µM [inhibitor, single point]	–
COc1cc(C(=O)NCCOc2cccc3cccnc23)cc(OC)c1OC	–	inactive: -26.6%
CC1(C)CC(=O)C=C(c2ccc(F)nc2)C1	–	inactive: 0.774%
CCn1c(=O)c(C(=O)Nc2ccccc2)c(O)c2ccccc21	inconclusive: 18.5 µM [inhibitor, single point]	–
COc1cc(OC)cc(C(=O)O/N=C(\N)c2ccccn2)c1	inconclusive: 18.5 µM [inhibitor, single point]	–
COc1cccc(C(=O)N2CCN(C(=O)Cc3ccccc3)CC2)c1	inconclusive: 4.65 µM [inhibitor, partial curve]	–
Cc1ccc(C(=O)C2COC(=O)C2)cc1 (centres undefined)	inconclusive: 0.329 µM [inhibitor, partial curve, poor fit]	–
COc1ccc(S(=O)(=O)Nc2cccnc2)cc1OC	inconclusive: 18.5 µM [inhibitor, single point]	–
CC[C@@H]1Cc2cc(O)ccc2C2=C1c1ccc(O)cc1C[C@H]2CC	inconclusive: 4.15 µM [inhibitor, partial curve, poor fit]	–
COc1ccc(NS(=O)(=O)c2cccc(C(=O)N/N=C/c3ccccn3)c2)cc1	–	inactive: 0%
O=S(=O)(c1ccc2nc(N3CCN(c4ccccc4F)CC3)ccc2c1)N1CCCCC1	inconclusive: 18.5 µM [inhibitor, partial curve, poor fit]	–
CC(C)CC(c1nnnn1CC1CCCO1)N1CCN(C2CCCC2)CC1 (centres undefined)	inconclusive: 11.7 µM [inhibitor, partial curve, poor fit]	–

Reprinted at random: two compounds from above, in no set order.
Structure (SMILES)	Potency	activity change, negative = inhibition
COc1ccc(S(=O)(=O)Nc2cccnc2)cc1OC	inconclusive: 18.5 µM [inhibitor, single point]	–
COCCn1c(SCC(=O)N2CCCCC2)nc2ccccc2c1=O	inconclusive: 16.5 µM [inhibitor, single point]	–
